Test results as given in article PMC3510510, “Structural insight of a concentration-dependent mechanism by which YdiV inhibits Escherichia coli flagellum biogenesis and motility” (Nucleic Acids Research, 2012).
Results are given in words; binding and its absence hold for the method and conditions named. For some assays here: Binding seen in cells or lysates may run through a third protein. Some binding calls cover weakened binding; strength is not graded here. For some assays here: Where a sequence is shown, tags or fusion partners need not be part of it.

T1: FlhC-His (E. coli) (UniProt P0ABY7)
T1 sequence: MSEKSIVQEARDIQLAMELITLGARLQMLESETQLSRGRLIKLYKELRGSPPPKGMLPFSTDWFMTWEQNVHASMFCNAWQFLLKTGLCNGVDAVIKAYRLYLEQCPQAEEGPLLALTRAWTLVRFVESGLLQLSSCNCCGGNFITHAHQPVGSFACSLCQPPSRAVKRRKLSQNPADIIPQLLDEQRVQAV

B1: YdiV (natural protein, E. coli)
chain: MKIFLENLYHSDCYFLPIRDNQQVLVGVELITHFSSEDGTVRIPTSRVIAQLTEEQHWQLFSEQLELLKSCQHFFIQHKLFAWLNLTPQVATLLLERDNYAGELLKYPFIELLINENYPHLNEGKDNRGLLSLSQVYPLVLGNLGAGNSTMKAVFDGLFTRVMLDKSFIQQQITHRSFEPFIRAIQAQISPCCNCIIAGGIDTAEILAQITPFDFHALQGCLWPAVPINQITTLVQR
notes: YdiV, E. coli; the ydiV gene was cloned into pET29b and pGL01; His-tag removal by PPase is stated for prey proteins of the pull-down; The crystal of YdiV alone (3TLQ) was phased with Se-Met-YdiV; also called native YdiV; wild-type YdiV; source: E. coli BL21(DE3), purified (Ni2+-NTA, Source-Q, Superdex 200)

Tests used:
YdiV = biological target: B1; test: SEC; purified YdiV alone (Supplementary Figure S2); both purified
FlhC-His (E. coli) = biological target: T1, FlhC-His (E. coli); test: pull-down; co-expression in E. coli BL21(DE3) of YdiV with FlhD-His, FlhC-His or FlhDC-His; complex isolated through the His-tagged partner (Supplementary Figure S3A-C)

binding (YdiV)	binding (FlhC-His (E. coli))	Binder
no binding	–	B1
–	binds	FlhD-His (natural protein, E. coli, FlhD, E. coli; the flhD gene was cloned into pET29b and pGL01; source: E. coli BL21(DE3): co-expressed with YdiV (in lysate); purified as bait for the pull-down) MHTSELLKHIYDINLSYLLLAQRLIVQDKASAMFRLGINEEMATTLAALTLPQMVKLAETNQLVCHFRFDSHQTITQLTQDSRVDDLQQIHTGIMLSTRLLNDVNQPEEALRKKRA
